# Laboratory results taken from the supplement of paper PMC3334620.
# Whole data set: some 33,000 sequences, median “E-score (-0.5 to 0.5)” near -0.015, cut for the highest 2% near 0.3. The list shows a part of the results.
# Target: T1, Abf1 (UniProt P14164)
# T1 sequence: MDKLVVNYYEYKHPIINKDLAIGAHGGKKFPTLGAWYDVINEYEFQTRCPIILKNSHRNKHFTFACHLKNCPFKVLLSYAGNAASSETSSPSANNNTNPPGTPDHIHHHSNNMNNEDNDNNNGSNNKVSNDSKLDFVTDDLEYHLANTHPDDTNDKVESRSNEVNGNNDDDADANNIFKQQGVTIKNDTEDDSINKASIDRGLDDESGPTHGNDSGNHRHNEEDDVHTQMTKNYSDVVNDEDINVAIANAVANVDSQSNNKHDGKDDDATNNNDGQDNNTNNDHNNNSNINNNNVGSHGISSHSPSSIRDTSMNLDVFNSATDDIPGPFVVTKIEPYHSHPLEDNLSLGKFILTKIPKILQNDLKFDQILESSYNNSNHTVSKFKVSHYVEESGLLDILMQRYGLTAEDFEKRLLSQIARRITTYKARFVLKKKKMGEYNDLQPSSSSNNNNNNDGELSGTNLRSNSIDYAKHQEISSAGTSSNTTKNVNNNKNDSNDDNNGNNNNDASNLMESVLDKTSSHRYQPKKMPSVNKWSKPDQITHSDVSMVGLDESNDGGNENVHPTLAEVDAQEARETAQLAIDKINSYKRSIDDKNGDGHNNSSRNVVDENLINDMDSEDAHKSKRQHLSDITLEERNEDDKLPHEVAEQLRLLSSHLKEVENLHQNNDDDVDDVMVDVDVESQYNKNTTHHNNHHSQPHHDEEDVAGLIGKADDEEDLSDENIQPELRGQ
# Assay: PBM E-score (8-mer binding enrichment) (E-score (-0.5 to 0.5)); higher = stronger / more preferred TF binding
# Details: protein concentration: 200 nM; construct: GST-full length
# Procedure, shortened: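 Yeast transcription factors carrying a GST tag, as full-length proteins or DNA-binding domains, were produced by PURExpress in vitro transcription/translation. About 100-200 nM protein was applied to universal all-10-mer Agilent arrays, double-stranded by primer extension on fresh or once-stripped slides. Bound protein was detected with fluorescent anti-GST, and scans were normalised with masliner. The Universal PBM Analysis Suite gave each ungapped eight-base word, pooled with its reverse complement, an E-score, a modified Wilcoxon-Mann-Whitney statistic.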
row,Sequence,PBM E-score
1,CGTAAGGC,0.0323
2,GAAAATTC,0.171
3,TCCTCGAA,0.0469
4,ACCTCGGC,-0.137
5,ACAGTGCC,0.084
6,GACTTAGC,-0.0904
7,ACTTGTAG,-0.0733
8,AGACGCAT,0.0143
9,CCATAAAG,-0.213
10,ATCTTGCC,0.188
11,CACAATCA,-0.0407
12,GGATACAC,-0.205
13,ATCCGCAC,0.025
14,TAATACTA,0.243
15,ACTGACTG,-0.262
16,ACGGAGCC,-0.105
17,AGGCGTAC,0.096
18,CCTAATGC,-0.035
19,AACGGACA,0.0722
20,CTGATAAC,0.167
21,ATCTAAAA,-0.0775
22,ACCCGAAT,-0.00013

row,Sequence,PBM E-score
1,CGCACTCC,-0.214
2,AATTTTTC,0.188
3,ACAACCGA,-0.0453
4,CGACCGTC,0.0699
5,ATTATGCC,0.0573
6,AGCTACCC,-0.0429
7,CAGACATG,-0.0504
8,ATTGAAGA,0.0478
9,ATCCTCAC,0.0841
10,AAACCTCG,-0.208
11,ACAGTCCT,0.181
12,AATTCACT,-0.102
13,AGCGCGCG,0.22
14,GCTCGCTA,-0.212
15,AGTACCAT,0.0778
16,AGTGAGAA,0.175
17,TGGAATAA,-0.0654
18,ATAGGAGG,-0.189
19,CTGAGGGC,-0.171
20,ATAAATAT,0.316
21,TTACCCAA,-0.17
22,ACCACACT,-0.125

row,Sequence,PBM E-score
1,CGGTATCC,-0.0905
2,ATCCCTCC,-0.199
3,CGTGTAAC,0.237
4,GACGAAGA,0.253
5,ATAATTGA,0.226
6,TAGCTTGA,0.0104
7,CCCTCGCG,-0.184
8,TAGTGCGA,-0.0822
9,GAGATTAC,-0.0487
10,CGCACGGA,0.244
11,TCGCACCA,-0.133
12,GCGGCCAC,-0.221
13,CTACACCC,-0.203
14,CGGTCGCC,-0.00137
15,AGTAGAAA,0.168
16,CAACTTAA,0.201
17,CCTGTGCG,-0.148
18,CGATGTTA,0.207
19,GAAGTAAC,0.0861
20,CGGGGAAA,0.0305
21,TGCCATAA,-0.0485
22,CACTTACC,-0.018

row,Sequence,PBM E-score
1,GTGTGATA,0.327
2,AGGTTTAT,0.11
3,GTGCAACA,0.00885
4,TACCCTAA,-0.147
5,GCGACATA,0.277
6,AGGGTACC,-0.0961
7,ACGGATCC,0.155
8,GATATGCA,0.203
9,CAATGTGC,0.0204
10,ATGATCGA,0.149
11,AAGATGGC,0.0138
12,AATTCACC,0.0848
13,GATATCCC,0.0875
14,GTCTGGAA,-0.23
15,GACGTTAC,0.13
16,AAGGAGCG,-0.302
17,CATGTTGA,0.236
18,GCCGTCTA,0.277
19,AGATTGAT,-0.0616
20,GCATAGTA,0.0739
